Results are given in words; binding and its absence hold for the method and conditions named. Binding seen in cells or lysates may run through a third protein. Some binding calls cover weakened binding; strength is not graded here. Where a sequence is shown, tags or fusion partners need not be part of it.
B1: Myc-tagged MRF4 (protein, UniProt P15375 1-242)
chain: MMMDLFETGSYFFYLDGENVTLQPLEVAEGSPLYPGSDGTLSPCQDQMPQEAGSDSSGEEHVLAPPGLQPPHCPGQCLIWACKTCKRKSAPTDRRKAATLRERRRLKKINEAFEALKRRTVANPNQRLPKVEILRSAISYIERLQDLLHRLDQQEKMQELGVDPYSYKPKQEILEGADFLRTCSPQWPSVSDHSRGLVITAKEGGANVDASASSSLQRLSSIVDSISSEERKLPSVEEVVEK
B2: Myc-tagged myogenin (protein, UniProt P20428 1-287)
chain: MELYETSPYFYQEPHFYDGENYLPVHLQGFEPPGYERTELSLSPEARGPLEEKGLGTPEHCPGQCLPWACKVCKRKSVSVDRRRAATLREKRRLKKVNEAFEALKRSTLLNPNQRLPKVEILRSAIQYIERLQALLSSLNQEERDLRYRGGGGPSRWYPVNATPTAPPAVRSGAMHWSLVPTQEIICSQLTLQVPTTCTPLRPSWTASRWRICLSPSQMKPCPTEIVCQAGCAWEPLSWCQTPPLLQQGPFKWGCPGAQKTALGCHKPDYPPSIHIRLTPSPAREFN

Chains of the proteins cited; added tags and fusions are not shown.
UniProt Q06413: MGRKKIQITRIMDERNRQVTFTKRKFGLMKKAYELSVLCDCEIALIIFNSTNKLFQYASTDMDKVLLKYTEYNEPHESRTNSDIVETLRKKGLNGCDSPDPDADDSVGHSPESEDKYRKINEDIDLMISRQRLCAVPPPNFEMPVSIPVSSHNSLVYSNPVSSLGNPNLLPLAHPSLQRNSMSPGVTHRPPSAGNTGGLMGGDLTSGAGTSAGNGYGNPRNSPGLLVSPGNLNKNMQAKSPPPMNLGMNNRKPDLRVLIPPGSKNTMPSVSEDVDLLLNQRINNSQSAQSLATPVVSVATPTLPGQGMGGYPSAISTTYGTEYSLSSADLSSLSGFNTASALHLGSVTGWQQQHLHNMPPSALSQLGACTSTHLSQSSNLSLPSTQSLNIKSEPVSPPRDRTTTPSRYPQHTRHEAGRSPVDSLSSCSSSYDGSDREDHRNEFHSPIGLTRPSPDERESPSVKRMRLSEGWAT

Molecular target: Flag-tagged MEF2C (UniProt Q06413)
Test: co-IP; HEK-293 cells co-transfected with MEF2C-Flag and Myc-MRF4 or Myc-myogenin, plus a plasmid coding for E47; lysates immunoprecipitated with anti-Flag, western blot with anti-Myc; Immunocruz IP/WB Optima System

binding	Binder
binds	B1
binds	B2
